Reference: publication PMC6134127
These are yes or no findings as the source states them, for the method shown. Binding can be weak; no strength is given.

Tests used:
Assay in all cases: two-hybrid; Gal4-based Matchmaker system (Clontech), yeast AH109; VPg as bait in pGBKT7, eIF4E/eIF(iso)4E as prey in pGADT7; growth on SD-LW/SD-LWH/SD-LWHA, 30 °C, checked after 3-5 days; in triplicate
[1] = target: viral protein linked to the genome (VPg) of Turnip mosaic virus isolate C4 (Turnip mosaic virus isolate C4)
[2] = target: viral protein linked to the genome (VPg) of Turnip mosaic virus isolate CDN1 (Turnip mosaic virus isolate CDN1)
[3] = target: viral protein linked to the genome (VPg) of Turnip mosaic virus isolate UK1 (Turnip mosaic virus isolate UK1)

Measured: binding

B1: Arabidopsis eIF(iso)4E (LSP) (protein, UniProt O04663 1-198)
chain: MATDDVNEPLPAAAELPATEAEKQPHKLERKWSFWFDNQSKKGAAWGASLRKAYTFDTVEDFWGLHETIFQTSKLTANAEIHLFKAGVEPKWEDPECANGGKWTWVVTANRKEALDKGWLETLMALIGEQFDEADEICGVVASVRPQSKQDKLSLWTRTKSNEAVLMGIGKKWKEILDVTDKITFNNHDDSRRSRFTV
binds: all assays above
